Laboratory results as given in the supplement of paper PMC12872613.
Structures can show the parent of a compound that is named as a salt. The list shows a part of the results. No stated cut-off is given here; in the data, active = 0.7 or more and inactive = the rest. Single values are uncertain, as repeats are few or missing.

System: MiaPaCa-2 CLSA-25
Assay: cell death relative to DMSO vehicle (fraction); higher = more cytotoxic
Conditions: 5 µM; treatment time 48 h; medium cystine 25 µM

Compound	cell death
CC(=O)OCC(=O)[C@@]1(O)CC[C@H]2[C@@H]3CCC4=CC(=O)C=C[C@]4(C)[C@H]3[C@@H](O)C[C@@]21C [Prednisolone-21-acetate]	inactive: 0.0283
C[C@H]1C[C@H]2[C@@H]3CCC4=CC(=O)C=C[C@]4(C)[C@H]3C(=O)C[C@]2(C)[C@@]1(O)C(=O)CO [Meprednisone]	inactive: 0.0206
C[C@]12CCC(=O)C=C1CC[C@@H]1[C@@H]2CC[C@@]2(C)[C@H]1CC[C@]2(O)C(=O)CO [Cortodoxone]	inactive: 0.0894
COc1cc(C2Oc3ccc(C4Oc5cc(O)cc(O)c5C(=O)C4O)cc3OC2CO)ccc1O (stereo unspecified) [Isosilybin]	active: 0.703
O=C1N[C@](c2ccc(N3CCOCC3)cc2)(c2ccsc2)CC(O)=C1Sc1ccccc1Cl	inactive: 0.139
CC(O)Cn1cnc2c1c(=O)n(C)c(=O)n2C (stereo unspecified) [Proxyphylline]	inactive: 0.0984
O=C(O)c1ccc(-n2nc(-c3ccccc3O)nc2-c2ccccc2O)cc1 [Deferasirox]	inactive: 0.472
CC1(C)[C@@H](O[C@H]2O[C@H](C(=O)O)[C@@H](O)[C@H](O)[C@H]2O[C@@H]2O[C@H](C(=O)O)[C@@H](O)[C@H](O)[C@H]2O)CC[C@]2(C)[C@H]3C(=O)C=C4[C@@H]5C[C@@](C)(C(=O)O)CC[C@]5(C)CC[C@@]4(C)[C@]3(C)CC[C@@H]12 [Ammonium Glycyrrhizinate]	inactive: 0.105
CCC(=O)OCC(=O)[C@@]1(OC(=O)CC)[C@@H](C)C[C@H]2[C@@H]3CCC4=CC(=O)C=C[C@]4(C)[C@@]3(F)[C@@H](O)C[C@@]21C [Betamethasone dipropionate]	inactive: 0.202
CC(C)c1nc(CN(C)C(=O)N[C@@H](CCN2CCOCC2)C(=O)N[C@H](CC[C@H](Cc2ccccc2)NC(=O)OCc2cncs2)Cc2ccccc2)cs1 [Cobicistat]	inactive: 0.517
C[C@@H](C(=O)O)c1ccc(-c2ccccc2)c(F)c1 [R-flurbiprofen]	inactive: 0.0976
Cn1c(=O)c2[nH]cnc2n(C)c1=O [Aminophylline]	inactive: 0.0242
Oc1ccc(/C=C/c2cc(O)cc(O)c2)cc1 [Resveratrol]	inactive: 0.166
C=CCc1ccc(O)c(-c2cc(CC=C)ccc2O)c1 [Magnolol]	inactive: 0.552
COC(=O)C1=CO[C@@H](O[C@@H]2O[C@H](CO)[C@@H](O)[C@H](O)[C@H]2O)[C@@H]2[C@@H](C)[C@@H](O)C[C@H]12 [Loganin]	inactive: 0.217
CN(C)C[C@@H]1CCn2cc(c3ccccc32)C2=C(C(=O)NC2=O)c2cn(c3ccccc23)CCO1 [Ruboxistaurin hydrochloride]	inactive: 0.171
O=C(/C=C/c1ccc2ccccc2n1)c1ccncc1	active: 0.745
CC(C)[C@H]1CC[C@H](C(=O)N[C@H](Cc2ccccc2)C(=O)O)CC1 [Nateglinide]	inactive: 0.175
CC(C)[C@H](N)C(=O)O [L-Valine]	inactive: 0.118
CCCN1CCN(c2ccc(C(=O)NC3(C(=O)NCC#N)CCCCC3)cc2)CC1 [Balicatib]	inactive: 0.27
C[C@]12CC[C@H]3[C@@H](CC[C@@]45O[C@@H]4C(O)=C(C#N)C[C@]35C)[C@@H]1CC[C@@H]2O [Trilostane]	inactive: 0.124
N#Cc1ccc(Oc2ccc3c(c2)COB3O)cc1 [Crisaborole]	inactive: -0.00401
O=C(O)c1ccc2c(c1)nc(Nc1cccc(Cl)c1)c1ccncc12 [Silmitasertib]	active: 0.742
CC(C)c1nc(CN(C)C(=O)N[C@H](C(=O)N[C@@H](Cc2ccccc2)C[C@H](O)[C@H](Cc2ccccc2)NC(=O)OCc2cncs2)C(C)C)cs1 [Ritonavir]	inactive: 0.253
c1cc(-c2cnn3cc(-c4ccc(OCCN5CCCCC5)cc4)cnc23)ccn1 [Dorsomorphin]	inactive: 0.103
COc1ccc(NC(=O)c2ccc(C(=N)N(C)C)cc2)c(C(=O)Nc2ccc(Cl)cn2)c1 [Betrixaban maleate]	inactive: 0.577

2 entries drawn at random from those above:
Compound	cell death
c1cc(-c2cnn3cc(-c4ccc(OCCN5CCCCC5)cc4)cnc23)ccn1 [Dorsomorphin]	inactive: 0.103
O=C1N[C@](c2ccc(N3CCOCC3)cc2)(c2ccsc2)CC(O)=C1Sc1ccccc1Cl	inactive: 0.139
